Results deposited as PubChem BioAssay AID686943 (Drosophila RNAi Screening Center, 2013).

Purpose: 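Fly genes whose loss alters ERK activation after insulin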 (primary screen)
Cells: Drosophila S2R+ haemocyte-like cells expressing YFP-tagged ERK (Rolled)
Reagents: long dsRNA against Drosophila genes
Conditions: insulin stimulation versus unstimulated cells; dose and duration not given
Measured: 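Antibody staining for doubly phosphorylated ERK divided by ERK-YFP signal, as plate z-scores, in insulin-treated and untreated cells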
Reading the numbers: replicate 1, z-score of dpERK with insulin: higher = more active ERK per ERK-YFP after insulin
The deposit covers about 23,000 reagents; below is a random part of those with a known target gene and a result. 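Extra replicates exist only for a retested subset of genes; insulin dose and duration not given; both raised and lowered dpERK matter.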 A plus sign joins genes that one reagent is predicted to hit. Further read-outs or replicates are left out here. Not given: the amount of reagent, the time to read-out.

replicate 1, z-score of dpERK with insulin, by target gene and reagent
heca: DRSC16964 -1
CG6254: DRSC16002 0.66
TwdlF: DRSC12225 0.63
CG43288: DRSC17314 -2.33
CG6980: DRSC16162 0.36
mei-P26: DRSC17735 -6.81
TotF: DRSC02305 -0.65
MagR: DRSC20092 -0.98
Smyd4-2: DRSC10126 -0.01
CG3701 (retired record): DRSC04408 0.19; DRSC04409 -1.09
Vps26: DRSC18555 -0.29
CG40045: DRSC21232 -0.02
Plc21C: DRSC00773 -0.99
jeb: DRSC06305 -0.64; DRSC06307 0.04
CG32313: DRSC21450 0.37
Wnt6: DRSC02795 -0.06
Teh4: DRSC08457 0.23
CG7194: DRSC10784 0.25
CG15530: DRSC15067 0.76
CG10307: DRSC04057 1.19
CG43219: DRSC11472 -0.57
robl22E: DRSC00289 -0.13
CG30083: DRSC05572 -0.97
wapl: DRSC18851 1.5
mask: DRSC15370 0.76; DRSC16005 0.52; DRSC16018 0.22
Nfs1: DRSC02154 -0.36
CG12782: DRSC04127 0.17
Cp16: DRSC11119 -0.34
kis: DRSC00521 0.13; DRSC00625 -2.47; DRSC00823 -0.21
Rab39: DRSC17827 1.35
spd-2: DRSC09682 -0.01
CG14232: DRSC19588 0.87
knon: DRSC07049 0.19
CG34187 (retired record) + Trpm: DRSC05543 1.19
CG4854: DRSC15663 0.27
ppk6: DRSC06062 -0.36
CG6800: DRSC16119 -0.04
MTF-1: DRSC08983 -0.31; DRSC11217 0.69; DRSC21341 1.29
ppk17: DRSC02252 0.25
Prps: DRSC08994 -0.15; DRSC10707 -0.35; DRSC10708 0.07
CG13560: DRSC04198 1.09
Cdlc2: DRSC00743 -0.89
CG13615: DRSC14618 -0.59
lncRNA:CR32160: DRSC22904 0.69
MED26: DRSC17126 -1.92; DRSC17147 -2.58; DRSC17148 -0.56

Ordered by “replicate 1, z-score of dpERK with insulin” (ascending): 7 of the entries above.
Target gene	amplicon	replicate 1, z-score of dpERK with insulin
mei-P26	DRSC17735	-6.81
CG3701 (retired record)	DRSC04409	-1.09
MagR	DRSC20092	-0.98
TotF	DRSC02305	-0.65
Smyd4-2	DRSC10126	-0.01
CG3701 (retired record)	DRSC04408	0.19
CG6980	DRSC16162	0.36
